This is an account of results in patent US20150174203A1.

The chains behind the UniProt entries cited, without tags or fusion partners. Where a name states a change or a piece, a line headed by the entry shows the natural chain unless it says otherwise.
UniProt Q86XS5: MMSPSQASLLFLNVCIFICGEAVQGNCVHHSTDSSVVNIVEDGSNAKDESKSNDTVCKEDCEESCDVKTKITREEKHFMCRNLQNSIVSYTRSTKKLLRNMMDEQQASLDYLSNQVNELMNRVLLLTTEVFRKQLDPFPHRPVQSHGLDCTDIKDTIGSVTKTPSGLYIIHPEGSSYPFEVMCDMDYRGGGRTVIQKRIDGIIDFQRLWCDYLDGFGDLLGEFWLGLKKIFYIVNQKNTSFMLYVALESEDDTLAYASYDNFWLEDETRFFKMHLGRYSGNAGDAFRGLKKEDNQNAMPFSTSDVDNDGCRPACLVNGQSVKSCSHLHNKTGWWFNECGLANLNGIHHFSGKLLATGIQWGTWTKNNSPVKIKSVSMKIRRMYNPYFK

These are yes or no findings as the source states them, for the method shown. For some assays here: In cells and extracts the contact can be indirect. Some entries that bind do so weakly or less than the wild type. Tags and fused reporters may be left off the sequences shown.

Assay [1] concerns the target T1, LILRB2 extracellular domain fused to human IgG-Fc (human) (UniProt Q8N423).
T1 sequence: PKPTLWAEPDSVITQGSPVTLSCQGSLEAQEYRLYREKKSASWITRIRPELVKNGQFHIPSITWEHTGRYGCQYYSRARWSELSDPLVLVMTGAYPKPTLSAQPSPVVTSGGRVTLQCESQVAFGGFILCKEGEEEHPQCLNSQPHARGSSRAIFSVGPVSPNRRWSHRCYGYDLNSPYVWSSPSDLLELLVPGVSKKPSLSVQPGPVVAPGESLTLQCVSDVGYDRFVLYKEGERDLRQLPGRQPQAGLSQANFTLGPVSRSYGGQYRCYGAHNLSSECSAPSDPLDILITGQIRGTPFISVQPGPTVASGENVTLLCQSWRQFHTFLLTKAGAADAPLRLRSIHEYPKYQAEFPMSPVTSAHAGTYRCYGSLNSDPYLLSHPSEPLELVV
Kind of assay: SPR (Biacore 2000), LILRB2-hFc captured on protein A, GST-Angptl-5 injected. A general note: SPR reads the build-up and loss of mass on a sensor chip optically.

The target in assay [2] is T1, LILRB2 extracellular domain fused to human IgG-Fc (human). Kind of assay: in vitro co-IP of purified proteins, protein A beads, Western blot. A general note: In western blotting, separated proteins are transferred to a membrane and probed.
The target is the same in assay [3]. As to the kind of experiment: in vivo co-IP.
For assay [4] the target is unchanged. Kind of assay: co-transfection in 293T cells, IP with protein A, Western blot.
The target is the same in assay [5]. Kind of assay: in vivo co-IP (Table 2).

On to “GST-Angptl-5 (purified, purchased from Abnova) (from UniProt Q86XS5 26-388) (ligand)”, for which the binding entry in assay [1] and in assay [2] was “binds” throughout.
With “untagged Angptl-5, mammalian-expressed (from UniProt Q86XS5 26-388) (ligand)”, the binding entry in assay [3], in assay [4] and in assay [5] was “binds” each time.
